Measured data: PubChem BioAssay AID1671195 (Yale University, 2021)

- Screen: 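Regulators of LDL receptor activity judged by labelled LDL uptake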 (primary screen)
- Cell system: human Huh7 hepatoma cells
- Reagent: siRNA pool against human genes, 18 nM
- Duration: about 2 to 2.5 days of knockdown, then 8 h LDL uptake
- Conditions: DiI-labelled LDL at 30 µg/ml for 8 h, in lipoprotein-deficient serum medium
- Measurement: 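Fluorescent LDL signal imaged in cells, scaled to the plate median, robust z-score for each replicate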
- Scale: robust z-score: higher = more LDL uptake after knockdown
- Call rule: 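Active when two or more replicates show a robust z-score above 2 or below -2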
The whole screen tested about 22,000 reagents; shown is a random part of them. In the full data, about 1,510 (6.9%) are marked active. 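Active includes knockdowns raising or lowering LDL uptake; positive z-scores mean more uptake, negative mean less.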 No sequences are given here.

no.	gene knocked down	robust z-score, replicate 1	robust z-score, replicate 2	robust z-score, replicate 3	call
1	RNF32	-0.837	0.106	-0.192	inactive
2	CITED2	0.339	0.101	-0.226	inactive
3	KRT80	-0.795	-0.655	-0.99	inactive
4	USP13	0.0245	-0.451	-0.0196	inactive
5	SLC25A41	-2	-2.14	-2.03	active
6	OR5C1	0.841	1.56	1.71	inactive
7	HNRNPU	0.66	0.78	2.54	inactive
8	DTWD2	0.793	0.499	0.11	inactive
9	MFAP1	2.28	2.12	1.84	active
10	OR10C1	0.916	-0.292	0.191	inactive
11	TLX3	0.515	0.288	0.366	inactive
12	CDK6	-0.337	-0.347	-0.0469	inactive
13	FLJ14082 (retired record)	-0.311	0.0632	0.0604	inactive
14	PLPPR5	2.33	1.55	2.46	active
15	TM4SF4	3.31	0.514	0.609	inactive
16	RWDD2B	2.85	1.98	1.48	active
17	ZNF766	-1.22	-0.96	-0.765	inactive
18	DEFA4	-0.784	-0.000111	-1.83	inactive
19	LINC02487	-0.329	-1.08	-0.611	inactive
20	TC2N	-0.123	-0.485	-0.29	inactive
21	KHDC3L	-0.195	0.66	-0.125	inactive
22	SYT1	6.86	6.11	7.06	active
23	GPR35	1.43	0.844	0.969	inactive
24	C5AR1	-0.994	-1.88	-1.88	inactive
25	CNOT10	-0.531	0.898	-0.431	inactive
26	PCDHGB6	-0.235	0.0987	0.334	inactive
27	AGPAT4-IT1	-0.363	-0.134	0.0217	inactive
28	ARHGEF10L	2.28	1.21	4.28	active
29	MYH13	1.07	0.405	0.968	inactive
30	KRT82	-0.567	-0.196	-0.318	inactive
31	SLC35A2	-0.37	-0.499	-0.577	inactive
32	LOC388735 (retired record)	-0.844	-0.656	-0.961	inactive
33	DDX42	-1.12	-2.13	-1.32	inactive
34	ACTRT1	-0.33	0.532	0.793	inactive
35	NPY5R	-0.0197	-0.221	0.434	inactive
36	CENPO	-0.763	-0.109	0.102	inactive
37	RSPO4	-0.313	-0.865	-0.863	inactive
38	OR1F1	2.16	1.73	1.85	inactive
39	LRRC24	-0.221	-0.374	-0.897	inactive
40	SLC44A3	0.604	-0.0197	-0.587	inactive
41	TFAP2A	-0.139	0.00322	0.156	inactive
42	ITGAM	-0.184	-1.26	-1.49	inactive
43	CDKN2AIP	0.0222	2.1	-0.0896	inactive
44	PAOX	-0.25	0.336	-0.298	inactive
45	ABRACL	0.227	0.46	0.572	inactive
46	FAM186A	0.526	-0.0286	-0.992	inactive
47	ARFGAP3	-1.07	-0.686	-0.65	inactive
48	TARM1	0.528	0.487	0.642	inactive
49	RC3H2	-1.95	-0.301	-2.67	active
50	GPR183	0.395	0.866	0.828	inactive
51	TAGLN3	-2.56	-1.07	-1.81	inactive
52	ZBTB32	-0.274	-0.965	-0.445	inactive
53	REG4	-0.853	-1.03	-0.161	inactive
54	KAZALD1	-1.46	-1.56	-1.6	inactive
55	LOC401079 (retired record)	0.123	0.651	0.141	inactive
56	TPM3	3.2	1.84	5.04	active
57	GPX5	-0.681	-0.162	-0.509	inactive
58	LRRK1	-0.0591	0.566	0.163	inactive
59	SBK1	-0.787	-1.11	-1.52	inactive
60	BPGM	1.14	1.43	1.15	inactive
61	STRC	-1.04	-0.956	-0.309	inactive
62	CD74	-0.66	-0.103	-0.42	inactive
63	LOC440378 (retired record)	-0.142	-0.484	-0.792	inactive
64	KNG1	0.363	0.0629	0.331	inactive
65	MAPRE1	-0.717	0.125	-0.455	inactive
66	SRM	0.188	0.748	0.465	inactive
67	PLA2G4C	-0.755	-2.19	-0.623	inactive
68	DSC1	0.69	0.647	1.47	inactive

6 entries from above, limited to “robust z-score, replicate 1”:
TM4SF4	3.31
RWDD2B	2.85
ZNF766	-1.22
DEFA4	-0.784
LINC02487	-0.329
TC2N	-0.123
